PubChem BioAssay AID1259405 – NCATS, 2018
The deposit covers about 50,000 reagents; this is an unselected part. About 4,000 of all reagents (8%) were called active. 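Mouse siRNA library applied to hamster cells; one well for each siRNA.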 Entries without a mark were called inactive. Reagents against one gene are numbered here.

Purpose: 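Mouse-designed siRNAs used to find CHO productivity engineering targets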 (primary screen)
Cell system: Chinese hamster CHO-K1 ovary cells with stable secreted eGFP expression
Knock-down reagent: single siRNA against mouse genes, 0.8 pmol siRNA per well (2 µl of 400 nM stock)
Time to read-out: 3 days
Detection: 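Per-well intracellular GFP measured by laser scanning cytometry, plus viability from ATP luminescence, each relative to plate median of non-targeting control wells, in %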
Scale: GFP, % of control: higher = more GFP per well, higher productivity; viability (ATP), % of control: higher = more viable cells (more ATP)
Active means: 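Called active when intracellular GFP, relative to negative control, is at or above 120%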

The opening 2 entries, to show the layout:
{"target gene": "Csrnp1", "reagent": 1, "GFP, % of control": 86.9, "viability (ATP), % of control": 64.8}
{"target gene": "Csrnp1", "reagent": 2, "GFP, % of control": 88.6, "viability (ATP), % of control": 85}

Main list, from the start:
{"target gene": "Csrnp1", "reagent": 1, "GFP, % of control": 86.9, "viability (ATP), % of control": 64.8}
{"target gene": "Csrnp1", "reagent": 2, "GFP, % of control": 88.6, "viability (ATP), % of control": 85}
{"target gene": "Csrnp1", "reagent": 3, "GFP, % of control": 33.1, "viability (ATP), % of control": 20.2}
{"target gene": "Cenpk", "reagent": 1, "GFP, % of control": 79.5, "viability (ATP), % of control": 88}
{"target gene": "Cenpk", "reagent": 2, "GFP, % of control": 62, "viability (ATP), % of control": 93.9}
{"target gene": "Cenpk", "reagent": 3, "GFP, % of control": 61.2, "viability (ATP), % of control": 66.7}
{"target gene": "Pla2g4c", "reagent": 1, "GFP, % of control": 79.9, "viability (ATP), % of control": 76.4}
{"target gene": "Pla2g4c", "reagent": 2, "GFP, % of control": 101, "viability (ATP), % of control": 95.8}
{"target gene": "Pla2g4c", "reagent": 3, "GFP, % of control": 61.9, "viability (ATP), % of control": 100}
{"target gene": "Gm6034", "reagent": 1, "GFP, % of control": 83.4, "viability (ATP), % of control": 67.6}
{"target gene": "Gm6034", "reagent": 2, "GFP, % of control": 92, "viability (ATP), % of control": 66}
{"target gene": "Gm6034", "reagent": 3, "GFP, % of control": 35.1, "viability (ATP), % of control": 29.1}
{"target gene": "Gcm2", "reagent": 1, "GFP, % of control": 41, "viability (ATP), % of control": 39.6}
{"target gene": "Gcm2", "reagent": 2, "GFP, % of control": 52.1, "viability (ATP), % of control": 48}
{"target gene": "Hsd17b4", "reagent": 1, "GFP, % of control": 96.5, "viability (ATP), % of control": 68.5}
{"target gene": "Hsd17b4", "reagent": 2, "GFP, % of control": 64.4, "viability (ATP), % of control": 62.3}
{"target gene": "Hsd17b4", "reagent": 3, "GFP, % of control": 72.1, "viability (ATP), % of control": 73.2}
{"target gene": "Mrgprx1", "reagent": 1, "GFP, % of control": 52.4, "viability (ATP), % of control": 107}
{"target gene": "Mrgprx1", "reagent": 2, "GFP, % of control": 79.7, "viability (ATP), % of control": 62.9}
{"target gene": "Mrgprx1", "reagent": 3, "GFP, % of control": 69.4, "viability (ATP), % of control": 83.4}
{"target gene": "Kcnk12", "reagent": 1, "GFP, % of control": 56, "viability (ATP), % of control": 103}
{"target gene": "Kcnk12", "reagent": 2, "GFP, % of control": 39.9, "viability (ATP), % of control": 62.2}
{"target gene": "Kcnk12", "reagent": 3, "GFP, % of control": 109, "viability (ATP), % of control": 112}
{"target gene": "Popdc3", "reagent": 1, "GFP, % of control": 68.2, "viability (ATP), % of control": 71.9}
{"target gene": "Popdc3", "reagent": 2, "GFP, % of control": 97.9, "viability (ATP), % of control": 89.6}
{"target gene": "Popdc3", "reagent": 3, "GFP, % of control": 91.2, "viability (ATP), % of control": 103}
{"target gene": "Sapcd1", "reagent": 1, "GFP, % of control": 40, "viability (ATP), % of control": 41.7}
{"target gene": "Sapcd1", "reagent": 2, "GFP, % of control": 53.9, "viability (ATP), % of control": 82.4}
{"target gene": "Sapcd1", "reagent": 3, "GFP, % of control": 60.1, "viability (ATP), % of control": 66.6}
